{"source": "patent US20230346924A1", "about": "“MRNA VACCINE COMPRISING ADJUVANT CAPABLE OF KINETIC CONTROL” (PROGENEER INC., priority 2020, published 2023)", "assay_type_in_all_cases": "cell-based, mouse", "key": {"[1]": {"test_system": "bone marrow-derived dendritic cells (BMDCs)", "assay": "Cytokine secretion by BMDCs (ELISA: IL-12p70, IL-10, type 1 IFN)", "conditions": "compared with 0h group", "experimental": "To confirm the efficacy of the composition for an mRNA vaccine of the present invention, an experiment was performed using OVA mRNA which is widely used as an mRNA vaccine. In further detail, first, CleanCap® OVA mRNA (5 moU, L-7210, TriLink Biotechnologies) and Opti-MEM™ (Reduced Serum Medium, ThermoFisher Scientific) were mixed at a volume ratio of 1:49, and Lipofectamine (Lipofectamine™ 2000 Transfection Reagent, ThermoFisher Scientific) and Opti-MEM® were mixed at a volume ratio of 2:23 as a delivery system, and then the above mixtures were mixed again in a volume ratio of 1:1 and reacted for 5 minutes, thereby preparing an mRNA composition. As toll-like receptor agonists, a toll-like receptor 3 agonist, which is polyinosinic-polycytidylic acid (poly I:C, Sigma-Aldrich), a toll-like receptor 4 agonist, which is Lipopolysaccharide (LPS, Sigma-Aldrich), and a toll-like receptor 7 or 8 agonist which is resiquimod (Biorbyt), were used. Poly I:C was used after being dispersed in phosphate buffered saline (PBS) at a concentration of 0.8 mg/mL, LPS was used after being dispersed in PBS at a concentration of 0.3 μg/mL, R848 was first dissolved in dimethyl sulfoxide (DMSO) at a concentration of 20 mg/mL, and then the dissolved solution was dispersed in PBS to a concentration of 20 μg/mL and used. In the case of treatment with a single toll-like receptor agonist, poly I:C was treated at 40 μg/mL. […]\nTo confirm the effect of a composition for an mRNA vaccine including a single toll-like receptor in BMDCs, first, BMDCs were treated with a toll-like receptor agonist and modified-mRNA (5-methoxyuridine modified OVA mRNA, TriLink) in the same manner as in Example 12.1, and an antigen presentation degree, amounts of cell surface molecules and levels of cytokines such as interleukin-12p70 (IL-12p70) and interferon were measured. […]"}, "[2]": {"test_system": "bone marrow-derived dendritic cells (BMDCs)", "assay": "Degree of antigen presentation in BMDCs treated with mRNA and toll-like receptor agonist (anti-OVA SIINFEKL antibodies)", "conditions": "compared to mRNA only", "experimental": "To confirm the efficacy of the composition for an mRNA vaccine of the present invention, an experiment was performed using OVA mRNA which is widely used as an mRNA vaccine. In further detail, first, CleanCap® OVA mRNA (5 moU, L-7210, TriLink Biotechnologies) and Opti-MEM™ (Reduced Serum Medium, ThermoFisher Scientific) were mixed at a volume ratio of 1:49, and Lipofectamine (Lipofectamine™ 2000 Transfection Reagent, ThermoFisher Scientific) and Opti-MEM® were mixed at a volume ratio of 2:23 as a delivery system, and then the above mixtures were mixed again in a volume ratio of 1:1 and reacted for 5 minutes, thereby preparing an mRNA composition. As toll-like receptor agonists, a toll-like receptor 3 agonist, which is polyinosinic-polycytidylic acid (poly I:C, Sigma-Aldrich), a toll-like receptor 4 agonist, which is Lipopolysaccharide (LPS, Sigma-Aldrich), and a toll-like receptor 7 or 8 agonist which is resiquimod (Biorbyt), were used. Poly I:C was used after being dispersed in phosphate buffered saline (PBS) at a concentration of 0.8 mg/mL, LPS was used after being dispersed in PBS at a concentration of 0.3 μg/mL, R848 was first dissolved in dimethyl sulfoxide (DMSO) at a concentration of 20 mg/mL, and then the dissolved solution was dispersed in PBS to a concentration of 20 μg/mL and used. In the case of treatment with a single toll-like receptor agonist, poly I:C was treated at 40 μg/mL. LPS was treated at 30 ng/mL, or R848 was treated at […], and in the case of treatment with a combination of agonists, 2 μg/mL of poly I:C and 1 μg/mL of R848 were treated, or 2 ng/mL of LPS and 1 μg/mL of R848 were treated, and in both cases, mRNA was treated at 1 μg/mL.\nTo identify the efficacy of the composition for an mRNA vaccine of the present invention, as cells for experiments, bone marrow-derived dendritic cells (BMDCs), plasmacytoid dendritic cells (pDCs), and T cells isolated from the spleen of an ovalbumin-specific TCR-bearing mouse (OT-1 transgenic mouse: OT-1 mouse) were used. […]"}, "[3]": {"test_system": "bone marrow-derived dendritic cells (BMDCs)", "assay": "Degree of BMDC activation by cell surface molecules (CD80, CD86, CD40 MFI)", "conditions": "mRNA and agonist together, regardless of treatment time, compared to mRNA only"}}, "note": "At least one structure is not confirmed: it was looked up by name or label, or the drawing left a doubt."}
{"smiles": "CCOCc1nc2c(N)nc3ccccc3c2n1CC(C)(C)O", "note": "[Compound R848]", "values": [{"measurement": "ratio of IL-12p70 and IL-10 (IL-12p70/IL-10), Th1 polarization induction indicator", "setting": "[1]; agonist 4h after mRNA", "result": "significantly increased"}, {"measurement": "secretion of IL-12p70", "setting": "[1]; agonist 4h after mRNA", "result": "increased"}, {"measurement": "ratio of IL-12p70 and IL-10 (IL-12p70/IL-10), Th1 polarization induction indicator", "setting": "[1]; agonist 8h after mRNA", "result": "significantly increased"}, {"measurement": "degree of antigen presentation", "setting": "[2]; agonist and mRNA at the same time (0h)", "result": "partially increased, but there was no significant difference"}, {"measurement": "degree of antigen presentation", "setting": "[2]; agonist eight hours after mRNA (8h)", "result": "increased"}, {"measurement": "degree of antigen presentation", "setting": "[2]; agonist four hours after mRNA (4h)", "result": "increased"}, {"measurement": "cell surface molecules (degree of cell activation)", "setting": "[3]", "result": "increased"}]}
